In this experiment the target is T1, Flag-tagged full-length USP44 (ubiquitin-specific protease 44) (human) (UniProt Q9H0E7).
T1 sequence: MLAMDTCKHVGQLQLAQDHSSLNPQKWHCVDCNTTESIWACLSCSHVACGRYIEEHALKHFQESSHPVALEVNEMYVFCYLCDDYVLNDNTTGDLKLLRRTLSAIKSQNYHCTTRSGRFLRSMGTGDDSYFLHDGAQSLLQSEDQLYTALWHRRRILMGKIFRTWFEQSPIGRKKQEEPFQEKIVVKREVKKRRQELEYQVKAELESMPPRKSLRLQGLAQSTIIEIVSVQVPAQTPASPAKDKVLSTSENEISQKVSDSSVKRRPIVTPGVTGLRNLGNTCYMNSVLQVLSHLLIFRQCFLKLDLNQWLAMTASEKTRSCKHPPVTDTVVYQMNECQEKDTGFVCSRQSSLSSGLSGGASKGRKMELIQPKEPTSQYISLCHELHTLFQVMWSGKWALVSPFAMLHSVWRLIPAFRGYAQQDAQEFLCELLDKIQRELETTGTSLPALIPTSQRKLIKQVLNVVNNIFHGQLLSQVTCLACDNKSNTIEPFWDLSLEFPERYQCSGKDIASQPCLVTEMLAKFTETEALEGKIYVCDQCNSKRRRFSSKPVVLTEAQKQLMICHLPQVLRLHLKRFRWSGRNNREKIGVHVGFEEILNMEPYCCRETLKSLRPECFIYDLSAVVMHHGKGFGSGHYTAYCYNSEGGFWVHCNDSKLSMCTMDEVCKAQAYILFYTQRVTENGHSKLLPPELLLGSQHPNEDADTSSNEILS
The experiment is described as follows: affinity purification with mass spectrometry; co-IP of Flag-tagged USP44 from cell lysate, co-precipitating proteins identified by LC-MS/MS.

Protein sequences, listed by entry. Tags and fused reporters are not part of them.
UniProt P38936: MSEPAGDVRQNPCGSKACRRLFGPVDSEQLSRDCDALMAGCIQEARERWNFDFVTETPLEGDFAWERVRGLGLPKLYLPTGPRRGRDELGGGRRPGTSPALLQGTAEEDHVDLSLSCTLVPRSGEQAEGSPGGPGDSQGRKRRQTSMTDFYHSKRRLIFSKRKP

No constants are given. Whether binding was seen depends on the method and setting. Binding seen in cells or lysates may run through a third protein. These calls come from enrichment with a bait or labelling near it, and not all partners need be listed. Sequences can lack the tags named with a protein.

For “endogenous p21 protein (from UniProt P38936 1-164)”, the binding entry is “binds”.

The values above are taken from PMC11489182.
